Results deposited as PubChem BioAssay AID1224826 (NIAID, 2016)
The deposit covers about 17,000 reagents; below is a random part of them. About 1,110 of them (6.6%) were called active. 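Active means lowered or raised reporter signal; replicate intensities are raw and not normalised per plate.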 A reagent listed more than once was tested more than once; the source does not tell the runs apart.

Purpose: 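Regulators of Tlr4 signalling leading to Tnf-alpha expression in macrophages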 (primary screen)
System: RAW264.7 G9 macrophages from mouse bearing reporters for p65 (GFP) and the Tnf promoter (mCherry)
Reagents: siRNA pool against mouse genes, 100 nM
Duration: 16 h of LPS stimulation, after 2 days of siRNA transfection
Conditions: bacterial lipopolysaccharide (Salmonella minnesota R595), 10 ng/ml
Detection: 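Imaged Tnf reporter mCherry in nuclei, minus background, normalised per plate to the median and expressed as robust z-scores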
Scale: Tnf reporter robust z-score: higher = stronger Tnf promoter reporter signal after LPS; Tnf reporter intensity: higher = stronger Tnf promoter reporter signal
Hit rule: 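Called active when robust z-score is at most -1.3, matching the median of the Tlr4 knock-down control, or over 3; control wells and wells with under 50 cells never active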
Meaning of the calls: active = Tnf reporter clearly lowered or raised; inactive = no clear change in Tnf reporter

| gene knocked down | Tnf reporter robust z-score | fewer than 50 cells in well | Tnf reporter intensity, replicate 1 | Tnf reporter intensity, replicate 2 | outcome |
| --- | --- | --- | --- | --- | --- |
| Prkag2 | -1.05 | enough cells in well | 113 | 88.7 | inactive |
| Atp5me | 0.2 | enough cells in well | 205 | 154 | inactive |
| Atp5mc3 | 0.25 | enough cells in well | 206 | 159 | inactive |
| Dtnb | -0.77 | enough cells in well | 169 | 154 | inactive |
| Rxylt1 | -0.19 | enough cells in well | 231 | 117 | inactive |
| Slc17a3 | 1.25 | enough cells in well | 160 | 127 | inactive |
| Ass1 | 0.08 | enough cells in well | 147 | 169 | inactive |
| Herc3 | 0.22 | enough cells in well | 360 | 111 | inactive |
| Tmem178 | – | fewer than 50 cells per well; well left out of calls | 74.8 | 84.9 | inactive |
| Zfp472 | 0.25 | enough cells in well | 77.3 | 139 | inactive |
| Coro6 | -0.32 | enough cells in well | 137 | 187 | inactive |
| Maz | -0.26 | enough cells in well | 217 | 206 | inactive |
| Hikeshi | -1.04 | enough cells in well | 158 | 53.3 | inactive |
| Zfp74 | -0.43 | enough cells in well | 105 | 115 | inactive |
| Cttn | 0.37 | enough cells in well | 303 | 190 | inactive |
| Or4c31 | -0.85 | enough cells in well | 70.5 | 159 | inactive |
| P2rx3 | 0.02 | enough cells in well | 259 | 171 | inactive |
| Ube2d3 | 3.23 | enough cells in well | 493 | 465 | active |
| Ighmbp2 | -1.02 | enough cells in well | 154 | 125 | inactive |
| Cpped1 | -0.73 | enough cells in well | 81.5 | 127 | inactive |
| Ctse | 1.26 | enough cells in well | 294 | 330 | inactive |
| Commd3 | -0.6 | enough cells in well | 143 | 145 | inactive |
| Mx2 | -0.02 | enough cells in well | 254 | 211 | inactive |
| Myocd | -1.49 | enough cells in well | 130 | 103 | active |
| Cma1 | -0.49 | enough cells in well | 166 | 116 | inactive |
| Ccnj | -0.69 | enough cells in well | 196 | 153 | inactive |
| Apol10a | -0.32 | enough cells in well | 146 | 135 | inactive |
| Fndc7 | 1.46 | enough cells in well | 257 | 185 | inactive |
| Tmem33 | – | fewer than 50 cells per well; well left out of calls | 212 | 35.4 | inactive |
| Clca3a2 | 0.36 | enough cells in well | 213 | 158 | inactive |
| Moxd1 | 1.2 | enough cells in well | 319 | 148 | inactive |
| Acvr2b | – | fewer than 50 cells per well; well left out of calls | 165 | 111 | inactive |
| Lcn4 | 0.71 | enough cells in well | 243 | 160 | inactive |
| Stfa3 | 1.26 | enough cells in well | 159 | 127 | inactive |
| Cdc42se2 | 0.96 | enough cells in well | 207 | 254 | inactive |
| Cdc42se2 | 0.64 | enough cells in well | 357 | 69.2 | inactive |
| Slc1a5 | 0.19 | enough cells in well | 113 | 102 | inactive |
| Prkar1a | -1.22 | enough cells in well | 78.3 | 93.7 | inactive |
| Gsr | 0.45 | enough cells in well | 259 | 305 | inactive |
| Ptpn3 | -1.88 | enough cells in well | 83.5 | 75.7 | active |
